Experimental data taken from patent US20220354791A1, “MESOPOROUS POLYMERIC PARTICULATE MATERIAL” (Aston University, priority 2019, published 2022).
At least one compound was matched to its structure with a doubt left.

Assays:
[1] = Dissolution testing of FELO-loaded mesoporous particles (USP I rotating basket); assay type: physicochemical; conditions: after 120 mins; USP pH 6.5 medium + 0.25% SLS, 500 mL, 37° C., 50 rpm, 20 mg FELO in HPMC capsule
[2] = Dissolution testing of co-spray dried Felodipine-CAB particles (USP I rotating basket); assay type: physicochemical; conditions: USP pH 6.5 medium + 0.25% SLS, 500 mL, 37° C., 50 rpm, up to 10 hours

With `CCOC(=O)C1=C(C)NC(C)=C(C(=O)OC)C1c1cccc(Cl)c1Cl` (centres unmarked) [Felodipine raw material, Felodipine] the Felodipine dissolved [1] was “around 10%” and the “dissolution (in words, FIG. 9)” value [2] was “poor dissolution”.
